Measured values from patent publication US4073888A, “Chlorine dioxide and quaternary ammonium salts as sterilizing agents” (priority 1975, dated 1978).
At least one compound was matched to its structure with a doubt left.

Test system: Bacillus subtilis
Assay: Comparative Sporicidal Test, chlorine dioxide alone
[1] = diluted 1:10 (10%), 2 h contact
[2] = diluted 1:10 (10%), 4 h contact
[3] = diluted 1:10 (10%), 6 h contact
[4] = diluted 1:10 (10%), 8 h contact
[5] = diluted 1:10 (10%), 10 h contact
[6] = diluted 1:10 (10%), 12 h contact
[7] = diluted 1:25 (4%), 10 h contact
[8] = diluted 1:25 (4%), 12 h contact

[O][Cl+][O-] [chlorine dioxide]
growth, Resubculture [1]: 3+ | growth, Subculture [1]: 3+ | growth, Resubculture [2]: 3+ | growth, Subculture [2]: 3+ | growth, Resubculture [3]: 3+ | growth, Subculture [3]: 3+ | growth, Resubculture [4]: 3+ | growth, Subculture [4]: 2+, 1- | growth, Resubculture [5]: 3+ | growth, Subculture [5]: 2+, 1- | growth, Resubculture [6]: 3+ | growth, Subculture [6]: 2+, 1- | growth, Resubculture (diluted 1:25 (4%), 2 h contact): 3+ | growth, Subculture (diluted 1:25 (4%), 2 h contact): 3+ | growth, Resubculture (diluted 1:25 (4%), 4 h contact): 3+ | growth, Subculture (diluted 1:25 (4%), 4 h contact): 3+ | growth, Resubculture (diluted 1:25 (4%), 6 h contact): 3+ | growth, Subculture (diluted 1:25 (4%), 6 h contact): 3+ | growth, Resubculture (diluted 1:25 (4%), 8 h contact): 3+ | growth, Subculture (diluted 1:25 (4%), 8 h contact): 3+ | growth, Resubculture [7]: 3+ | growth, Subculture [7]: 3+ | growth, Resubculture [8]: 3+ | growth, Subculture [8]: 3+
